The text below walks through data of US20210228680A1.

The chains behind the UniProt entries cited, without tags or fusion partners.
UniProt P29351: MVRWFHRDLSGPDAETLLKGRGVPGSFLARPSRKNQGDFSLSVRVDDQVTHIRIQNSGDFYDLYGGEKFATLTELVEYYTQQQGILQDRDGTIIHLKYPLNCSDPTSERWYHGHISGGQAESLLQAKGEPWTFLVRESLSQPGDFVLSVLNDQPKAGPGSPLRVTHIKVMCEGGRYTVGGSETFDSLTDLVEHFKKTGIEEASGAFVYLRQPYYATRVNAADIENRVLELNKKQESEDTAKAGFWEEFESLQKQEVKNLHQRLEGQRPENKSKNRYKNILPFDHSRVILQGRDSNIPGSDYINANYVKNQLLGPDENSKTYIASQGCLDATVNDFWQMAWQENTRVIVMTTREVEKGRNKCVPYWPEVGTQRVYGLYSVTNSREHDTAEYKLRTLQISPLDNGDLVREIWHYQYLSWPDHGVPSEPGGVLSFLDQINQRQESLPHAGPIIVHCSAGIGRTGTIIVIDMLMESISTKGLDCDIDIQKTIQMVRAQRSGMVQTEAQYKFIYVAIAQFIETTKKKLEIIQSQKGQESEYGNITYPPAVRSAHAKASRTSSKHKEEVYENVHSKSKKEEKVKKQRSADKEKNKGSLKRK

For the test, the target named is SHP-1 (mouse) (UniProt P29351). Kind of test: co-immunoprecipitation: Siglec G precipitated from CD24Fc-stimulated CD24-/- spleen cells, probed with anti-SHP-1.

No constants are given. Whether binding was seen depends on the method and setting. Binding seen in cells or lysates may run through a third protein. Some binding calls cover weakened binding; strength is not graded here.

B1: Siglec G (mouse homologue of human Siglec 10) (receptor, UniProt Q80ZE3 18-688, looked up)
chain: QMESYFLQVQRIVKAQEGLCIFVPCSFSSPEGKWLNRSPLYGYWFKGIRKPSLSFPVATNNKDKVLEWEARGRFQLLGDISKKNCSLLIKDVQWGDSTNYFFRMERGFERFSFKEEFRLQVEALTQKPDIFIPEVLEPGEPVTVVCLFSWTFNQCPAPSFSWMGDAVSFQESRPHTSNYSVLSFIPGLQHHDTELTCQLDFSRMSTQRTVRLRVAYAPRSLAISIFHDNVSVPDLHENPSHLEVQQGQSLRLLCTADSQPPATLSWVLEDQVLSWSSPVGSRTLALELPWVKAGDSGHYTCQAENRLGSQQHTLDLSVLYPPQDLRVTVSQANRTVLEILRNAISLPVLEGQSLCLVCVTYSNPPANVSWAWVTQTLIPIQSSEPGVLELPLVQREHEGEFTCAAQNPLGAQRISLSLSVHYPPQMSSPSCSWEAKGLHCNCSSRAWPAPSLRWRLGEGLLEGNSSNASFTVTFSSLGPWVNSSLSLLQELGPSLWLSCESWNTHGAQTTSVLLLPDKDSATAFSKGAVLGFGITALLALCLIVVIVKTLQKKGTQEEPSRPKLSRGSTILDYINVVPKTRSLARNWKAEPDAPSRSSPLDTHFPKPKKKQKDPHFTYPGCPDPTSSSQVPVSENNPEELHYAALNFSRLRLQETQDPQDTYSDYTEVRVH
With B1, the binding result is “binds”.
